HELM strings list residues between dots; [ac] is acetyl, [am] amide, other brackets name non-standard units.
Assay: general procedure: Boc solid-phase peptide synthesis; benzhydrylamine resin; DCC/HOBT
Conditions: whole synthesis, scale 1 mmol

PEPTIDE1{[Mpr].[D-Tyr(Et)].F.V.N.[Pen].P.R.G.[am]}$PEPTIDE1,PEPTIDE1,1:R3-6:R3$$$V2.0
crude mass: 754 mg
